Holding throughout (test): fluorescence polarisation
On the technique in general: Polarisation of emitted light reports the rotation of a fluorescent probe.

The target of data set [1] is T1, SNM1B R301A (Homo sapiens) (UniProt Q9H816).
T1 sequence (looked up): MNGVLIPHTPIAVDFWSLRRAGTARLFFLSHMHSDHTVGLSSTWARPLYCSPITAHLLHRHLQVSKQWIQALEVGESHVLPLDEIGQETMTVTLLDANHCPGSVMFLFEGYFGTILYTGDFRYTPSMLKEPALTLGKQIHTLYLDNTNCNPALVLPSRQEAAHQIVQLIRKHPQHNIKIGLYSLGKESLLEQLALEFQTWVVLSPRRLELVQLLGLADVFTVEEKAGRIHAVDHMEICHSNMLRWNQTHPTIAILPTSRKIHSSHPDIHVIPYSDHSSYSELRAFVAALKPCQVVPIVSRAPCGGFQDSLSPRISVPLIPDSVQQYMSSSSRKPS
Particulars: apparent, curves do not saturate; 5' phosphate on strand 1; 5' OH on strand 2; FP: 20 mM HEPES pH 7.5, 50 mM KCl, 0.5 mM TCEP, room temperature, 5 min, DNA 25 nM (Methods) or 50 nM (legends; 10 nM in Suppl. Fig. 14C); recombinant protein; residues 1-335; protein details: C-terminal His10-FLAG, TEV cleavage stated; label: 3' FITC on strand 1.

The target in data set [2] is T2, SNM1B H276A (Homo sapiens) (UniProt Q9H816).
T2 sequence (looked up): T1 sequence (looked up) with H276A, A301R
Particulars: highest enzyme concentration not tested; 5' phosphate on strand 1; 5' OH on strand 2; FP: 20 mM HEPES pH 7.5, 50 mM KCl, 0.5 mM TCEP, room temperature, 5 min, DNA 25 nM (Methods) or 50 nM (legends; 10 nM in Suppl. Fig. 14C); recombinant protein; residues 1-335; protein details: C-terminal His10-FLAG, TEV cleavage stated; label: 3' FITC on strand 1.

Data set [3] has as its target T3, SNM1B R259A (Homo sapiens) (UniProt Q9H816).
T3 sequence (looked up): T1 sequence (looked up) with R259A, A301R
Particulars: increased KDapp; 5' phosphate on strand 1; 5' OH on strand 2; FP: 20 mM HEPES pH 7.5, 50 mM KCl, 0.5 mM TCEP, room temperature, 5 min, DNA 25 nM (Methods) or 50 nM (legends; 10 nM in Suppl. Fig. 14C); recombinant protein; residues 1-335; protein details: C-terminal His10-FLAG, TEV cleavage stated; label: 3' FITC on strand 1.

In data set [4] the target is T4, SNM1B Y182A (Homo sapiens) (UniProt Q9H816).
T4 sequence (looked up): T1 sequence (looked up) with Y182A, A301R
The following applies: apparent, curves do not saturate; 5' phosphate on strand 1; 5' OH on strand 2; FP: 20 mM HEPES pH 7.5, 50 mM KCl, 0.5 mM TCEP, room temperature, 5 min, DNA 25 nM (Methods) or 50 nM (legends; 10 nM in Suppl. Fig. 14C); recombinant protein; residues 1-335; protein details: C-terminal His10-FLAG, TEV cleavage stated; label: 3' FITC on strand 1.

Data set [5] addresses T5, SNM1B T257A (Homo sapiens) (UniProt Q9H816).
T5 sequence (looked up): T1 sequence (looked up) with T257A, A301R
The following applies: apparent, curves do not saturate; 5' phosphate on strand 1; 5' OH on strand 2; FP: 20 mM HEPES pH 7.5, 50 mM KCl, 0.5 mM TCEP, room temperature, 5 min, DNA 25 nM (Methods) or 50 nM (legends; 10 nM in Suppl. Fig. 14C); recombinant protein; residues 1-335; protein details: C-terminal His10-FLAG, TEV cleavage stated; label: 3' FITC on strand 1.

Data set [6] addresses T6, SNM1B R20A (Homo sapiens) (UniProt Q9H816).
T6 sequence (looked up): T1 sequence (looked up) with R20A, A301R
Particulars: similar to WT; 5' phosphate on strand 1; 5' OH on strand 2; FP: 20 mM HEPES pH 7.5, 50 mM KCl, 0.5 mM TCEP, room temperature, 5 min, DNA 25 nM (Methods) or 50 nM (legends; 10 nM in Suppl. Fig. 14C); recombinant protein; residues 1-335; protein details: C-terminal His10-FLAG, TEV cleavage stated; label: 3' FITC on strand 1.

Positions count from the first letter of the chain named. The exact form of at least one protein or probe is not confirmed. For part of these data: Weaker means in comparison with the reference protein, sequence or condition of that experiment. Protein sequences can lack the tags named with them.

As to “ATAAATATTTTTTATTAATAATAGATCACCTTTCTTTCTCTTCTCCCCTT / ATTATTAATAAAAAATATTTAT [3' overhang DNA (oligo 20 / oligo 4)]”, the values for the Kd in data set [1], in data set [4] and in data set [5] were 940 nM, 1100 nM and 2120 nM, respectively. For the same sequence, the binding result is “binds more weakly” in data set [2], “binds more weakly” in data set [3] and “binds” in data set [6].

(Values after article PMC8450094.)
